Experimental data reported in US20240002514A1.
No constants are given. Whether binding was seen depends on the method and setting. Some results given as binding are weak or reduced against the parent protein; the word gives no strength.

Tests used:
[1] = molecular target: recombinant cynomolgus monkey PD-L1 Fc chimera (Sino Biological, cat #90251-C02H) (cynomolgus monkey) (UniProt G7PSE7); experiment: ELISA on directly coated cynomolgus PD-L1 Fc chimera (1 ug/mL), detection anti-human kappa light chain-HRP
[2] = molecular target: recombinant cynomolgus monkey PD-L1 Fc chimera (Sino Biological, cat #90251-C02H) (cynomolgus monkey) (UniProt G7PSE7); experiment: direct ELISA, Fc chimera coated at 1 ug/mL, anti-human kappa HRP detection

B1: 3C5-2G12 IgM antibody (antibody)
heavy: QVQLKESGPGLVAPSQSLSITCTVSGFSLTSYDISWVRQPPGKGLEWLGVIWTGVGTNYNSAFMSRLSISKDNSKSQVFLKMNSLQTDDTAMYYCVRDPYYYGMDYWGQGTSVTVSSGSASAPTLFPLVSCENSPSDTSSVAVGCLAQDFLPDSITFSWKYKNNSDISSTRGFPSVLRGGKYAATSQVLLPSKDVMQGTDEHVVCKVQHPNGNKEKNVPLPVIAELPPKVSVFVPPRDGFFGNPRKSKLICQATGFSPRQIQVSWLREGKQVGSGVTTDQVQAEAKESGPTTYKVTSTLTIKESDWLSQSMFTCRVDHRGLTFQQNASSMCVPDQDTAIRVFAIPPSFASIFLTKSTKLTCLVTDLTTYDSVTISWTRQNGEAVKTHTNISESHPNATFSAVGEASICEDDWNSGERFTCTVTHTDLPSPLKQTISRPKGVALHRPDVYLLPPAREQLNLRESATITCLVTGFSPADVFVQWMQRGQPLSPEKYVTSAPMPEPQAPGRYFAHSILTVSEEEWNTGETYTCVVAHEALPNRVTERTVDKSTGKPTLYNVSLVMSDTAGTCY
light: DIQMNQSPSSLSASLGDTITITCRASQDISIWLSWYQQKPGNIPELLIYKASNLHTGVPPRFSGSGSGTDFTLTISSLQPEDIATYYCLQSQSFPRTFGGGTKLEIKRTVAAPSVFIFPPSDEQLKSGTASVVCLLNNFYPREAKVQWKVDNALQSGNSQESVTEQDSKDSTYSLSSTLTLSKADYEKHKVYACEVTHQGLSSPVTKSFNRGEC
B1 was tested, and the binding [1] was “binds” and the binding [2] was “binds”.
